{
  "source": "paper doi:10.1101/453811",
  "target": "T1, Dsn1-6His-3Flag (S. cerevisiae) (UniProt P40568)",
  "T1 sequence": "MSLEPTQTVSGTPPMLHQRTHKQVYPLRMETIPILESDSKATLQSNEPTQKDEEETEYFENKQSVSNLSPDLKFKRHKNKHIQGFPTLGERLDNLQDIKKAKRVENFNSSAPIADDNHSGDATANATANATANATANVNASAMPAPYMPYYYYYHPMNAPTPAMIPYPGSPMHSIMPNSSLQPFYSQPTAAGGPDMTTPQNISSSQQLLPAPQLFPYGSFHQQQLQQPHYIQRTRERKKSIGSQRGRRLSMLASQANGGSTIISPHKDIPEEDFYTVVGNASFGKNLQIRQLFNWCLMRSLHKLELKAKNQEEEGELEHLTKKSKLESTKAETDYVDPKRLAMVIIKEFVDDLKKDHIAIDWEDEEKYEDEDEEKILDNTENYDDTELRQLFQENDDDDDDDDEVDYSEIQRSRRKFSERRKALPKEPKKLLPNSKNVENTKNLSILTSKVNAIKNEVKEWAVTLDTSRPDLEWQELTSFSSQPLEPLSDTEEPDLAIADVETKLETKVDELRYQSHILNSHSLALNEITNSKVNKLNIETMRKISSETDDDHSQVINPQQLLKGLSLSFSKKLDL",
  "assay": "co-IP",
  "note": "Results are given in words; binding and its absence hold for the method and conditions named. In cells and extracts the contact can be indirect. Binding calls can cover weak binding; strength is not graded here. Where a sequence is shown, tags or fusion partners need not be part of it.",
  "data": [
    {"substance": "Stu2^TOG1Δ-3V5 (stu2(Δ2-281)-3V5) (S. cerevisiae) (domain or fragment)", "values": [
      {"measurement": "binding", "value": "binds"}
    ]}
  ]
}
